Reference: patent publication US8338337B2, “Substituted pyridines having a herbicidal effect” (BASF SE, priority 2008, dated 2012)
Some entries share one result that the patent states for a list of compounds.

Key:
Assay in all cases: greenhouse post-emergence herbicidal test
GALAP = format: in vivo, Galium aparine; conditions: 0.5 kg/ha, scale 0 to 100
CHEAL = format: in vivo, Chenopodium album; conditions: 0.5 kg/ha, scale 0 to 100
ECHCG = format: in vivo; conditions: 0.5 kg/ha, scale 0 to 100
SETVI = format: in vivo, Setaria viridis; conditions: 0.5 kg/ha, scale 0 to 100
AMARE = format: in vivo, Amaranthus retroflexus; conditions: 0.5 kg/ha, scale 0 to 100
ALOMY = format: in vivo, Alopecurus myosuroides; conditions: 3.0 kg/ha, scale 0 to 100
AVEFA = format: in vivo, Avena fatua; conditions: 3.0 kg/ha, scale 0 to 100

## CC(C)(C)C(=O)Oc1c(-c2ccccc2C(F)(F)F)c(=O)oc2cccnc12 [I-34]
GALAP
  herbicidal activity against GALAP: very good (a very good herbicidal activity is given at values of at least 85)
CHEAL
  herbicidal activity against CHEAL: very good (a very good herbicidal activity is given at values of at least 85)

## O=c1oc2cccnc2c(O)c1-c1c(F)cccc1C(F)(F)F [I-38]
ECHCG
  herbicidal activity against ECHCG: very good (a very good herbicidal activity is given at values of at least 85)
GALAP
  herbicidal activity against GALAP: very good (a very good herbicidal activity is given at values of at least 85)
CHEAL
  herbicidal activity against CHEAL: very good (a very good herbicidal activity is given at values of at least 85)

## O=c1oc2cccnc2c(O)c1-c1cc(F)ccc1C(F)(F)F [I-44]
SETVI
  herbicidal activity against SETVI: very good (a very good herbicidal activity is given at values of at least 85)
ECHCG
  herbicidal activity against ECHCG: very good (a very good herbicidal activity is given at values of at least 85)
AMARE
  herbicidal activity against AMARE: very good (a very good herbicidal activity is given at values of at least 85)

## O=c1oc2cccnc2c(O)c1-c1cc(Cl)ccc1C(F)(F)F [I-45]
SETVI
  herbicidal activity against SETVI: very good (a very good herbicidal activity is given at values of at least 85)
ECHCG
  herbicidal activity against ECHCG: very good (a very good herbicidal activity is given at values of at least 85)
AMARE
  herbicidal activity against AMARE: very good (a very good herbicidal activity is given at values of at least 85)

## CC(=O)Oc1c(-c2ccccc2C(F)(F)F)c(=O)oc2cccnc12 [I-46]
ALOMY
  herbicidal activity against ALOMY: very good (a very good herbicidal activity is given at values of at least 85)
AVEFA
  herbicidal activity against AVEFA: very good (a very good herbicidal activity is given at values of at least 85)

## O=c1oc2cccnc2c(O)c1-c1c(Cl)cc(C(F)(F)F)cc1Cl [I-54]
ALOMY
  herbicidal activity against ALOMY: very good (a very good herbicidal activity is given at values of at least 85)

## O=c1oc2cccnc2c(O)c1-c1c(Br)cccc1C(F)(F)F [I-55]
ALOMY
  herbicidal activity against ALOMY: very good (a very good herbicidal activity is given at values of at least 85)
AVEFA
  herbicidal activity against AVEFA: very good (a very good herbicidal activity is given at values of at least 85)
